Laboratory results from US7649012B2, “Compounds, pharmaceutical compositions containing same, and methods of use for same” (FASgen, Inc., priority 2002, dated 2010).
Several values for one entry are separate records, joined by “and”; a condition that tells them apart may be missing. Equal entries are not always repeated. For some assays here: At least one read-out could not be matched to a standard name with certainty. For some assays here: At least one structure is not confirmed: it was looked up by name or label, or the drawing left a doubt.

Assays:
[1] = Weight loss screen in Balb/C mice; assay type: in vivo
Protocol: Balb/C mice (Jackson Labs) are utilized for the initial weight loss screening. Animals are housed in temperature and 12 hour day/night cycle rooms and fed mouse chow and water ad lib. Three mice are utilized for each compound tested with vehicle controls in triplicate per experiment. For the experiments, mice are housed separately for each compound tested three mice to a cage. […] Mice are observed and weighed daily; average weights and standard errors are computed with Excel (Microsoft). The experiment continues until treated animals reach their pretreatment weights. […]

[2] = tested on: Escherichia coli (ATCC # 25922); assay: Broth microdilution MIC; assay type: cell-based
Protocol: (§1) A broth microdilution assay is used to assess the antimicrobial activity of the compounds. […] Microorganisms tested include Staphylococcus aureus (ATCC # 29213), Enterococcus faecalis (ATCC # 29212), Pseudomonas aeruginosa (ATCC # 27853), and Escherichia coli (ATCC # 25922). The assay is performed in two growth media, Mueller Hinton Broth and Trypticase Soy Broth. […] Colonies are suspended in sterile broth so that the turbidity matches the turbidity of a 0.5 McFarland standard. The inoculum is diluted 1:10 in sterile broth (Mueller Hinton or Trypticase soy) and 195 ul is dispensed per well of a 96-well plate. The compounds to be tested, dissolved in DMSO, are added to the wells in 5 ul volume at the following concentrations: 25, 12.5, 6.25, 3.125, 1.56 and 0.78 ug/ml in duplicate. Additional concentrations are tested if required. 5 ul of DMSO added to duplicate wells are the vehicle control. Serial dilutions of positive control compounds, vancomycin (E. faecalis and S. aureus) and tobramycin (E. coli and P. aeruginosa), are included in each run. After 24 hours of incubation at 37° C., plates are read at OD600 on a Molecular Devices SpectraMax Plus Spectrophotometer. Average OD600 values are computed using SOFTmax Pro Software (Molecular Devices) and MIC values are determined by linear regression analysis using Prism version 3.02 (Graph Pad Software, San Diego).

[3] = tested on: Pseudomonas aeruginosa (ATCC # 27853); assay: Broth microdilution MIC; assay type: cell-based
Protocol: as §1

[4] = 60 mg/kg intraperitoneally, day1

## CCCCCCCCC1(C)SC(=O)C=C1O (centres unmarked)
[1]; [4]
  Weight Loss: 2% and 0.3%

## CCCCCCCCC1(C)SC(=O)C=C1OC (centres unmarked)
[1]; 30 mg/kg, day4
  Weight Loss: 0% and 5.7%

## C=CCC1=C(OC)C(C)(CCCCCCCC)SC1=O (centres unmarked)
[1]; [4]
  Weight Loss: 8.0%

## CCCCCCCCC1(C)SC(=O)C=C1OC(=O)OCC (centres unmarked)
[2]; Mueller Hinton Broth
  Ecoli/MH(MIC): Neg
[2]; Trypticase Soy Broth
  Ecoli/Tsoy(MIC): Neg
[3]; Mueller Hinton Broth
  PSAE/MH(MIC): Neg
[3]; Trypticase Soy Broth
  PSAE/Tsoy(MIC): Neg
[1]; 60 mg/kg intraperitoneally, day2
  Weight Loss: 5.7%

## C#CCOC1CC(=O)S[C@]1(C)CCCCCC (mixture of isomers)
[1]; 30 mg/kg, day3
  Weight Loss: 3%

## C=CCOC1=CC(=O)S[C@]1(C)CCCCCCCC (racemic)
[1]; 30 mg/kg, day2
  Weight Loss: 3%

## CCCCCCCC[C@@]1(C)SC(=O)C=C1OCC(=O)OCC (racemic)
[1]; [4]
  Weight Loss: 3.6%
